Measured values from patent publication US20040265859A1.
Results are given in words; binding and its absence hold for the method and conditions named. Some entries that bind do so weakly or less than the wild type. Where a sequence is shown, tags or fusion partners need not be part of it.

By UniProt entry, the sequences of proteins in these tests, tags left out. Residues count along the entry.
UniProt P16144, residues 28-1822: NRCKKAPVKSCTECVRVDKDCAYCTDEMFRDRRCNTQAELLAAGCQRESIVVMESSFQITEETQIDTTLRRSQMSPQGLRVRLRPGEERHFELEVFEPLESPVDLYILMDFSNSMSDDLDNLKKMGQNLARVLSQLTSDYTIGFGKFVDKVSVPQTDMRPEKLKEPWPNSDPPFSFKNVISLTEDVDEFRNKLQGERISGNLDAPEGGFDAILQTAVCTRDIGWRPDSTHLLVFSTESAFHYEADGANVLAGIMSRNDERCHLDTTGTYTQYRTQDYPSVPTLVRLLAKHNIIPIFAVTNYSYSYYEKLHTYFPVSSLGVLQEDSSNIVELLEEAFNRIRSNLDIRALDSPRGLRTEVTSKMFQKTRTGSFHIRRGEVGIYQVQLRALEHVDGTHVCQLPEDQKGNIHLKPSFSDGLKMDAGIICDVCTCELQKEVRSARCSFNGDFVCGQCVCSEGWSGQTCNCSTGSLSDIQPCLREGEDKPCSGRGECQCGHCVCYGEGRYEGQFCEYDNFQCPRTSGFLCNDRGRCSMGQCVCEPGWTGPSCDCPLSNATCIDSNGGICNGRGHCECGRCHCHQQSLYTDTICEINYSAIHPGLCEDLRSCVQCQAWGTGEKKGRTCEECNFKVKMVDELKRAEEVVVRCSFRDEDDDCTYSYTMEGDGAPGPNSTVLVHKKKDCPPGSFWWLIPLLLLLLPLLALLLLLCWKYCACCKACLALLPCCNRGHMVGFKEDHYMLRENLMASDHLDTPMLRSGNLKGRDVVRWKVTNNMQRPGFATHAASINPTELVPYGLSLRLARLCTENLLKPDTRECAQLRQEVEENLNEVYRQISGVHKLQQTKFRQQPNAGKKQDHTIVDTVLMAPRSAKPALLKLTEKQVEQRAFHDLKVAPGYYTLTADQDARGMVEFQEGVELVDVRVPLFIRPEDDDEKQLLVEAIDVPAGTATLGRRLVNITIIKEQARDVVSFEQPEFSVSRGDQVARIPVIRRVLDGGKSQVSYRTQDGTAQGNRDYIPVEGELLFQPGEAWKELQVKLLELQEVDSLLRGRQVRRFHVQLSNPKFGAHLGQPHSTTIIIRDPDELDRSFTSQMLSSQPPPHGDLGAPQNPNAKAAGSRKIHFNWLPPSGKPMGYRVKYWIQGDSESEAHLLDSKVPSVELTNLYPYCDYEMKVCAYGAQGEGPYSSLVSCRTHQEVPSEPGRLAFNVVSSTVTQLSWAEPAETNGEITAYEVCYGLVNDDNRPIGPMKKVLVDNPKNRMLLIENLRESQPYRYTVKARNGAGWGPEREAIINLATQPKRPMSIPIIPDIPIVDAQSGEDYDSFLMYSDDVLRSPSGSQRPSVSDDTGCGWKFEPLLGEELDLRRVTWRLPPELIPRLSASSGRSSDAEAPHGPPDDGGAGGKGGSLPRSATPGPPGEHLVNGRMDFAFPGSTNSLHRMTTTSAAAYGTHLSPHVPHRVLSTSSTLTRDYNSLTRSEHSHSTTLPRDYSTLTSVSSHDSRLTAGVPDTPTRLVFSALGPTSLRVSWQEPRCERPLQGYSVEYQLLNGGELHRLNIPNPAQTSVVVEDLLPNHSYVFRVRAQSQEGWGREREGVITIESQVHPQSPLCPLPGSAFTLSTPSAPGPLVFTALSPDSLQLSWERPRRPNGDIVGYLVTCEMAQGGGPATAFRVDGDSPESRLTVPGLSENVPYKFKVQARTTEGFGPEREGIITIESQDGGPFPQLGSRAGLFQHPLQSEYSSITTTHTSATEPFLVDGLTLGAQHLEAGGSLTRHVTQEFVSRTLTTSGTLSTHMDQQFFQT

Experiments:
[1] = molecular target: β4 integrin, immunopurified (from MDA-MB-231L cells) (human) (UniProt P16144); test: ELISA, phosphate-buffered saline + 1 mm MnCl2
[2] = molecular target: β4 integrin, immunopurified (from MDA-MB-231L cells) (human) (UniProt P16144); test: ELISA on coated integrin
[3] = molecular target: β4 integrin, immunopurified (from MDA-MB-231L cells) (human) (UniProt P16144); test: reverse pull-down, Western blot
[4] = molecular target: β4 integrin, immunopurified (from MDA-MB-231L cells) (human) (UniProt P16144); test: ELISA, GST-HA … 100 ng/ml on dishes coated at 10 µg/ml, anti-GST detection
[5] = molecular target: β4 integrin, immunopurified (from MDA-MB-231L cells) (human) (UniProt P16144); test: pull-down, Western blot with α-β4 pAbH101
[6] = molecular target: β4 integrin, immunopurified (from MDA-MB-231L cells) (human) (UniProt P16144); test: pull-down, Western blot
[7] = molecular target: β4 integrin on MDA-MB-231 human breast cancer cells (human) (UniProt P16144); test: FACS on MDA-MB-231 cells, 100 ng/ml
[8] = molecular target: β4 integrin, immunopurified (from MDA-MB-231L cells) (human) (UniProt P16144); test: ELISA, immunopurified β4 integrin coated at 10 µg/ml, increasing concentrations of the polypeptide
[9] = molecular target: β4 integrin on MDA-MB-231 human breast cancer cells (human) (UniProt P16144); test: FACS on MDA-MB-231 cells, α-GST antibody detection
[10] = molecular target: β4 integrin, immunopurified (from MDA-MB-231L cells) (human) (UniProt P16144); test: ELISA with different divalent cations
[11] = molecular target: β4 integrin, immunopurified (from MDA-MB-231L cells) (human) (UniProt P16144); test: pull-down, Western blot with α-GST pAb(B-14)
[12] = molecular target: β4 integrin, immunopurified (from MDA-MB-231L cells) (human) (UniProt P16144); test: ELISA and pull-down assays, data not shown

Measured: binding

AFSRISSGTG (peptide, not shown: a dimerising Fc or GST; small tags and cut ends) [GST-β4BMhCLCA2(90)-HA (GST fusion of the β4-binding motif … of the 90-kDa hCLCA2)]
not listed: [12]
binds: all other assays above

GFSRVSSGGS (peptide, not shown: a dimerising Fc or GST; small tags and cut ends) [GST-β4BMhCLCA2(35)-HA (GST fusion of the β4-binding motif … of the 35-kDa hCLCA2)]
binds: [12]
